Assay results as given in the supplement of paper PMC10849652.
The list shows a part of the results.

By UniProt entry, the sequences of proteins in these tests, tags left out. Where a name states a change or a piece, a line headed by the entry shows the natural chain unless it says otherwise.
UniProt Q6PGP7, whole entry, looked up: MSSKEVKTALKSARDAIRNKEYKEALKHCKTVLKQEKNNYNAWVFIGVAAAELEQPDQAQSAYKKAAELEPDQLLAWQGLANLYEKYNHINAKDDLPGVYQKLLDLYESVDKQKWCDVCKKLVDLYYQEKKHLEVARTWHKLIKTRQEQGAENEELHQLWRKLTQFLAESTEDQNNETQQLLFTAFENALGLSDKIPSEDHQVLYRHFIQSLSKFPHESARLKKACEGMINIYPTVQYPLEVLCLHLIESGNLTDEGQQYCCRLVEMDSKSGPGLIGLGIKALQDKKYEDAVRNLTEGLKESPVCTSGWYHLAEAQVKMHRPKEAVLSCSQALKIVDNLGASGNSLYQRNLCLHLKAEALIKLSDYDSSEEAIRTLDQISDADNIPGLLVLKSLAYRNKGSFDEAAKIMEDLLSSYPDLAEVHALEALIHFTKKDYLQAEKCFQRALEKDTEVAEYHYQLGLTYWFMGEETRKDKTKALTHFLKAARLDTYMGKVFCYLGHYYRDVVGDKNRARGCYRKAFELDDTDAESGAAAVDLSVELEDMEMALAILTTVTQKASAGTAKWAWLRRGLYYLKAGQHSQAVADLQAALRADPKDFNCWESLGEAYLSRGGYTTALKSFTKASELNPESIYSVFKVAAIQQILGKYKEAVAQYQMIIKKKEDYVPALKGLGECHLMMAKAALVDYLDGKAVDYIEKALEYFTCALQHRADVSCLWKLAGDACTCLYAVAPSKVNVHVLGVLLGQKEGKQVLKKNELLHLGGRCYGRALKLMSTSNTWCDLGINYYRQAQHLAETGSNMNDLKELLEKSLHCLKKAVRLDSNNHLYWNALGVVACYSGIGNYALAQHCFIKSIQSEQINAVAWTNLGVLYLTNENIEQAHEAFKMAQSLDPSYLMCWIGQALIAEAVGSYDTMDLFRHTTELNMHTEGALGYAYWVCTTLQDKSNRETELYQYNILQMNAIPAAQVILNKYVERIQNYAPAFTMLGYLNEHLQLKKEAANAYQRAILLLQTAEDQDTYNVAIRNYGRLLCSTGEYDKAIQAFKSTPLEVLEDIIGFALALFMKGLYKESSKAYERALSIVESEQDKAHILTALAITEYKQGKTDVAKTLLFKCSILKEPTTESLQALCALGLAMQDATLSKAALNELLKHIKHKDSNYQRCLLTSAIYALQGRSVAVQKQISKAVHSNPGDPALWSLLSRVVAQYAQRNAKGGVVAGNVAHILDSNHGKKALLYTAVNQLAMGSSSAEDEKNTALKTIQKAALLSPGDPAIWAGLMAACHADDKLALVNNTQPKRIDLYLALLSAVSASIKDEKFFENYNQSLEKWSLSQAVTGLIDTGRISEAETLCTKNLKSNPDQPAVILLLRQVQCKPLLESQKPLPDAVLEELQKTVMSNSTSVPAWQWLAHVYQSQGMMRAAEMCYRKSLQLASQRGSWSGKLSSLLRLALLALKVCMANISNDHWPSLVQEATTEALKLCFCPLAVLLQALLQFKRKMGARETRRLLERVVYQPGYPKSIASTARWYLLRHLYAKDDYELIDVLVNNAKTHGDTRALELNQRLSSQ
UniProt Q5VYS8: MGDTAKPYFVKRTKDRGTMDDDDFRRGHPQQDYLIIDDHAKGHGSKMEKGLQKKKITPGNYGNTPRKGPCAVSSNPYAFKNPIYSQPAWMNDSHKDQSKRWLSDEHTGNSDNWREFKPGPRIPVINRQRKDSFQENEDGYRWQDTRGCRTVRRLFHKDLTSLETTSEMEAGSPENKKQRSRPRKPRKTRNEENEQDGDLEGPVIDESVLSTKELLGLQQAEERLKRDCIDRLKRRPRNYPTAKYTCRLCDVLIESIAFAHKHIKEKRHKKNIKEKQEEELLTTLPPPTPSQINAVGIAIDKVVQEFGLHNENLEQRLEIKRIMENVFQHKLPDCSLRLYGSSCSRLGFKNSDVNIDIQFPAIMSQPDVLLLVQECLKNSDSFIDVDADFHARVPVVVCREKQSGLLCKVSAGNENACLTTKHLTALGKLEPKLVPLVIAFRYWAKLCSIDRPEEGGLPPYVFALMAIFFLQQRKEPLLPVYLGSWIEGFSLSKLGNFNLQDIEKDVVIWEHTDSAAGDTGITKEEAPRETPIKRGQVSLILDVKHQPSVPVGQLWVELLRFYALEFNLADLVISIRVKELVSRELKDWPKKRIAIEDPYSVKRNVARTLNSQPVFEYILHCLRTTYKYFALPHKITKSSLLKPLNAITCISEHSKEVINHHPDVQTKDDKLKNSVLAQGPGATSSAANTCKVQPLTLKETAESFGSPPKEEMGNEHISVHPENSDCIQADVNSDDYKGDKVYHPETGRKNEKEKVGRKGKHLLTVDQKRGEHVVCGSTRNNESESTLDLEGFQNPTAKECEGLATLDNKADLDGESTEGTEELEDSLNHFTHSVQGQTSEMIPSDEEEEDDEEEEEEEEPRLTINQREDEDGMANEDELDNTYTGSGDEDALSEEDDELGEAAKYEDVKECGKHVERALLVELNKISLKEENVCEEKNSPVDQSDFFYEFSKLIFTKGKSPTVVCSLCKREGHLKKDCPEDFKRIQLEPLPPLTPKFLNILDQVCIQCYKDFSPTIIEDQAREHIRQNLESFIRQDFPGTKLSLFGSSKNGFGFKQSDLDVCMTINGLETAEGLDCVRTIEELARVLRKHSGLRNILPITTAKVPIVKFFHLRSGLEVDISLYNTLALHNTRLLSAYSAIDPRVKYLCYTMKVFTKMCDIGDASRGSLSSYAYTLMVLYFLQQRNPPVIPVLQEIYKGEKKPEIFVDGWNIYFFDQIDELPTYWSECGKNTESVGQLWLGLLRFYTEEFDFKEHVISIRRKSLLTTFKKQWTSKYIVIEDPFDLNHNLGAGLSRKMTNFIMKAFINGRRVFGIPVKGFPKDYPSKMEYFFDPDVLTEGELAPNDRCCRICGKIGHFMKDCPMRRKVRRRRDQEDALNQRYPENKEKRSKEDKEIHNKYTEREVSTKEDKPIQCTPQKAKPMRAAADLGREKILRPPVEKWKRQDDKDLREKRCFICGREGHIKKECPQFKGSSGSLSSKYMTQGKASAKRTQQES
UniProt Q16881, whole entry, looked up: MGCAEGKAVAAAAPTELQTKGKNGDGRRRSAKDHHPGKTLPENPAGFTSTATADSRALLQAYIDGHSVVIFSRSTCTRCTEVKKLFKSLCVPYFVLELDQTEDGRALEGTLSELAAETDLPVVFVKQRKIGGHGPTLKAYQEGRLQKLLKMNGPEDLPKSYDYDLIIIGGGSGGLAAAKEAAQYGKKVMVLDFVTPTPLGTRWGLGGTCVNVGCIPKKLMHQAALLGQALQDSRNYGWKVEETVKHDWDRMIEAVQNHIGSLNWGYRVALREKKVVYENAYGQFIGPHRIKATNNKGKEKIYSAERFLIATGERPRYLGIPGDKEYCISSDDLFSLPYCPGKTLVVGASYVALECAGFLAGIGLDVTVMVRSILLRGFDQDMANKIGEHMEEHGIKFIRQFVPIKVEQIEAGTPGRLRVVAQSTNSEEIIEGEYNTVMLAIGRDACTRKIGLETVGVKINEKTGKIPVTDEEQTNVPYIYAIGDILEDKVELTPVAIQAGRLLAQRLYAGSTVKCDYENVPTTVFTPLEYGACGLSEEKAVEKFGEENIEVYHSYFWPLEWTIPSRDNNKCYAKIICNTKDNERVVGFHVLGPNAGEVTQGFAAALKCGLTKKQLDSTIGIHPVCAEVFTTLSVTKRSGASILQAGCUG
UniProt Q3B726, whole entry, looked up: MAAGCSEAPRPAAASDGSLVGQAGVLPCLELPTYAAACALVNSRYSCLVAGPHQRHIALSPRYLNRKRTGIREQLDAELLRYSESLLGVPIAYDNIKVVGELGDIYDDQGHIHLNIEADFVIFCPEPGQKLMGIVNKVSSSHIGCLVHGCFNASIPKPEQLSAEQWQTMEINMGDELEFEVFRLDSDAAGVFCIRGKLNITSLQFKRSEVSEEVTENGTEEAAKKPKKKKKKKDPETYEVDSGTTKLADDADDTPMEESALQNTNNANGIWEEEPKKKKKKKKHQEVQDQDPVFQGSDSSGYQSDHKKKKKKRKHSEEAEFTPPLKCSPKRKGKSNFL
UniProt O14933: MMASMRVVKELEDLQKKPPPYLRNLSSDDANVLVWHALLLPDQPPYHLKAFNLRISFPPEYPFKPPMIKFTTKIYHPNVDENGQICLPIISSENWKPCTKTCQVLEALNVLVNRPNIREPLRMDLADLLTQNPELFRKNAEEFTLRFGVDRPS
UniProt Q9H0U9: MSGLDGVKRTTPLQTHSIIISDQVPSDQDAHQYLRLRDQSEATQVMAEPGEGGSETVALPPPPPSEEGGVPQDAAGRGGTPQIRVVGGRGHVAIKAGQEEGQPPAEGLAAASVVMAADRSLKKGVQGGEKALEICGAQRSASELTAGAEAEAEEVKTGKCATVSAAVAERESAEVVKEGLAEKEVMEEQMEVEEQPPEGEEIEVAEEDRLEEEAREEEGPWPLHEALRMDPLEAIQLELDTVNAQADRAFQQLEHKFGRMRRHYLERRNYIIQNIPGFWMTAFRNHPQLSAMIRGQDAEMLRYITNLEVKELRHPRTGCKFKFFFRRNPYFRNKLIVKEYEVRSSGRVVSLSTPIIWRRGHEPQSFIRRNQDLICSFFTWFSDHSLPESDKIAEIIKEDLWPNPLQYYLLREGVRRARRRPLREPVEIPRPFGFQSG
UniProt P33981: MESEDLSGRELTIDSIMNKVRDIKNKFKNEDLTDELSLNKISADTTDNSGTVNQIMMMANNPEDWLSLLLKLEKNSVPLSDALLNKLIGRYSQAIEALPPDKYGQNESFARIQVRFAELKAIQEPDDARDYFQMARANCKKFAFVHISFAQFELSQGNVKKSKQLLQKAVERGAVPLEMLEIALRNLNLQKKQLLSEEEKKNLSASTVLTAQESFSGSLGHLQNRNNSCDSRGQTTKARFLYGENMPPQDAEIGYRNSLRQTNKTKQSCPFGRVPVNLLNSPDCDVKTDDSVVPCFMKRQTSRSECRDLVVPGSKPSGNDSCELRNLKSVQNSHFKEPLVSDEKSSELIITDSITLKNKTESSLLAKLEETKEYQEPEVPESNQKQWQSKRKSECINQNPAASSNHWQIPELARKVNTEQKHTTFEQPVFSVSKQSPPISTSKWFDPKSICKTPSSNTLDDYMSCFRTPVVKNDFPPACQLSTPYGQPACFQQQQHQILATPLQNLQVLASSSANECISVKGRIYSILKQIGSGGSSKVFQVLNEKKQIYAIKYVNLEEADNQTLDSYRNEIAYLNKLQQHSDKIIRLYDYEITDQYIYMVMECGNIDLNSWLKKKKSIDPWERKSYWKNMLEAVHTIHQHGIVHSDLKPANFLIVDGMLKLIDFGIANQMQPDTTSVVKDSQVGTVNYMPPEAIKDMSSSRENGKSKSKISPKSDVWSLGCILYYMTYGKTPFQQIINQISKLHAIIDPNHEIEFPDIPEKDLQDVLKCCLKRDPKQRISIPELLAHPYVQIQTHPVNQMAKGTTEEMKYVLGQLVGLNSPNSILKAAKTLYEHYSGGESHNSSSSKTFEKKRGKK
UniProt Q12999: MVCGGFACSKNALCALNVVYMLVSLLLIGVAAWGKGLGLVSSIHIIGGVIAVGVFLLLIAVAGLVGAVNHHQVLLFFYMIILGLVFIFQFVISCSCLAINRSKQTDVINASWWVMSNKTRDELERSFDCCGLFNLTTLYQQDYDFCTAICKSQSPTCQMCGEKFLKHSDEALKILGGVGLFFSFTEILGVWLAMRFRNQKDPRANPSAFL
UniProt Q06418: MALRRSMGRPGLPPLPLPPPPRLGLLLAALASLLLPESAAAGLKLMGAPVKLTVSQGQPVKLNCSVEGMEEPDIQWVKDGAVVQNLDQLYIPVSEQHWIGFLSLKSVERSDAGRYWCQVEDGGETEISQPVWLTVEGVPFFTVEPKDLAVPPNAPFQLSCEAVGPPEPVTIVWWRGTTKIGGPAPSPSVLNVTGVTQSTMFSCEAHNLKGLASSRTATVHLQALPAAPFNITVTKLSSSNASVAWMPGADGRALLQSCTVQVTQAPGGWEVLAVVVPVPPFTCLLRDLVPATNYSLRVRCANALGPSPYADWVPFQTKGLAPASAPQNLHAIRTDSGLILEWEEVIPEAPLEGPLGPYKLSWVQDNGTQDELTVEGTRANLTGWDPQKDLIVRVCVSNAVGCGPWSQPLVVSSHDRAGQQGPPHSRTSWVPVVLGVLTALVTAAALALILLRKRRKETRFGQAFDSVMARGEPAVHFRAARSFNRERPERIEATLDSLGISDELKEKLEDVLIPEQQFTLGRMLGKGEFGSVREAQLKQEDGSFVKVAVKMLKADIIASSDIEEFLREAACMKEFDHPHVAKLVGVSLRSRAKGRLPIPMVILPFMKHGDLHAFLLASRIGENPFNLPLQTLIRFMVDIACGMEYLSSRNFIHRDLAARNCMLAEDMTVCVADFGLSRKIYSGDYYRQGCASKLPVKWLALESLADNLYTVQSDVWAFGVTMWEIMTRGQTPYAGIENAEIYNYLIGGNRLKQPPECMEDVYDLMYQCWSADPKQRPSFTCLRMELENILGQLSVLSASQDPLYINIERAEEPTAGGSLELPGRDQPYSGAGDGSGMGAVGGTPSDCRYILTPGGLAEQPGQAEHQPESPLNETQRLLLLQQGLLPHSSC

Columns and labels:
Assay in all cases: log2 fold change, soluble protein after heating vs DMSO (PISA); higher = thermal stabilisation; K562 cells, 10 uM, 30 min; active = over 0.2 and 3.5 SD of the protein, either way, in both replicates (recomputed)
[1] = compound: CC1=C(C=C(C=C1)NC(=O)C2=CC(=CC=C2)N(C)C)NC(=O)C3=CC=C(C=C3)O
Procedure, shortened: (§1)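 K562 cells at 2×10^6 cells/mL were treated with 10 μM compound for 30 min. Aliquots were heated for 3 min across 48°C-58°C, pooled, and extracted in PBS with 0.5% NP-40 at 4°C; soluble protein was the supernatant after 21,000xg for 90 min. Soluble protein was quantified by TMTpro 16plex LC-MS/MS with channel sums equalised, and reported as log2 fold change in thermal stability against DMSO controls, with values from duplicates.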

[2] = compound: CC1=NC(=CC=C1)C2=C(N=C(N2)C(C)(C)C)C3=CC4=NC=CN=C4C=C3
Procedure, shortened: as §1

[3] = compound: CCCCN(Cc1ccc(C(=O)NO)cc1)C(=O)Nc1ccccc1 [Nexturastat A]
Procedure, shortened: as §1

[4] = compound: CCCS(=O)(=O)Nc1ccc(F)c(C(=O)c2c[nH]c3ncc(-c4ccc(Cl)cc4)cc23)c1F [vemurafenib]
Procedure, shortened: as §1

[5] = compound: CCN(CCCOc1ccc2c(Nc3cc(CC(=O)Nc4cccc(F)c4)[nH]n3)ncnc2c1)CCOP(=O)(O)O [barasertib]
Procedure, shortened: as §1

[6] = compound: CC[C@@H]1C(=O)N(C)c2cnc(Nc3ccc(C(=O)NC4CCN(C)CC4)cc3OC)nc2N1C1CCCC1
Procedure, shortened: as §1

[7] = compound: CC[C@H](C)[C@@H](C(=O)N[C@@H]([C@@H](C)O)C(=O)N[C@@H](CC(C)C)C(=O)[C@]1(CO1)C)NC(=O)[C@H]([C@@H](C)CC)N(C)C(=O)C [epoxomicin]
Procedure, shortened: as §1

[8] = compound: CN(C)CC(=O)Nc1ccc2[nH]c(=O)c3ccccc3c2c1
Procedure, shortened: as §1

[9] = compound: CN(CCOC1=CC=C(C=C1)C[C@H]2C(=O)NC(=O)S2)C3=CC=CC=N3 (racemic) [rosiglitazone]
Procedure, shortened: as §1

[10] = compound: CC1=C(C=C(C=C1)NC(=O)C2=CC(=CC=C2)C(C)(C)C#N)NC3=CC4=C(C=C3)N=CN(C4=O)C
Procedure, shortened: as §1

[11] = compound: CC[C@H](C)N1C=C(C2=C(C=C(C=C21)C3=CN=C(C=C3)N4CCNCC4)C(=O)NCC5=C(C=C(NC5=O)C)C)C
Procedure, shortened: as §1

[12] = compound: CCn1cc(-c2ccnc3[nH]c(-c4cccc(CN(C)C)c4)cc23)c(-c2ccc(NC(=O)N(C)C)cc2)n1
Procedure, shortened: as §1

[13] = compound: CN1CCC(CNc2ccc3ncc(-c4cccc(OC(F)(F)F)c4)n3n2)CC1
Procedure, shortened: as §1

[14] = compound: CC1=CC=C(C=C1)SC2=C3C=C(SC3=CN=C2)C(=O)N
Procedure, shortened: as §1

[15] = compound: CCCS(=O)(=O)Nc1ccc(F)c(C(=O)c2c[nH]c3ncc(Cl)cc23)c1F
Procedure, shortened: as §1

[16] = compound: CCN(CC)Cc1ccc2cc(COC(=O)Nc3ccc(C(=O)NO)cc3)ccc2c1 [givinostat]
Procedure, shortened: as §1

[17] = compound: CC[C@@H]1C(=O)N(C)c2cnc(Nc3ccc(C(=O)N[C@H]4CC[C@H](N5CCN(CC6CC6)CC5)CC4)cc3OC)nc2N1C(C)C [volasertib]
Procedure, shortened: as §1

[18] = compound: CN1C2=C(C3=C1C(=O)N(N=C3)CC4=CC(=CC=C4)N)SC(=C2)S(=O)C
Procedure, shortened: as §1

[19] = compound: CCCc1cc(C)[nH]c(=O)c1CNC(=O)c1cc(-c2ccnc(N3CCN(C)CC3)c2)cc2c1cnn2C(C)C
Procedure, shortened: as §1

[20] = compound: CCn1c(C(=O)N(C2CC2)C2CC2)cc2c3c(ncn3C)c(Nc3cc(C)n(C)n3)nc21
Procedure, shortened: as §1

Measured: log2 fold change

TTC37 (UniProt Q6PGP7)
inactive: [1] 0.069 | [2] -0.694 | [3] 0.474 | [4] -0.181 | [5] 0.078 | [6] 0.041 | [7] -0.532 | [8] 0.028 | [9] 0

TUT7 (UniProt Q5VYS8)
inactive: [10] -0.052 | [2] -0.003 | [3] 0.481 | [6] 0.048 | [11] 0.025 | [7] -0.156 | [12] -0.148 | [13] 0.43

TXNRD1 isoform 7 (UniProt Q16881)
inactive: [10] -0.567 | [14] -0.037 | [3] 0.221 | [4] -0.123 | [15] 0.049 | [16] 0.403 | [5] 0.041 | [6] 0.054 | [17] -0.106 | [7] 0.155 | [12] -0.501 | [8] -0.074 | [18] 0.101 | [13] -0.028

TVP23C (UniProt Q96ET8)
inactive: [14] 0.024 | [4] -0.022 | [15] -0.178 | [19] -0.118 | [16] 0.043 | [6] 0.097 | [17] 0.068 | [12] -0.019 | [8] -0.025 | [18] 0 | [13] -0.033

UBE2L5, A0A1B0GUS4
inactive: [4] 0.097 | [16] -0.096 | [6] 0.065 | [20] 0.14 | [8] -0.049

TST (UniProt Q16762)
inactive: [10] -0.027 | [14] -0.048 | [2] 0.134 | [3] 0.108 | [4] 0.091 | [15] 0.034 | [19] 0.122 | [16] 0 | [6] 0.051 | [17] 0.065 | [11] 0.014 | [7] -0.128 | [20] 0.091 | [8] 0.071 | [18] 0.029

TWISTNB (UniProt Q3B726)
inactive: [10] -0.306 | [14] -0.204 | [3] 0.061 | [4] 0.337 | [15] -0.048 | [19] 0.066 | [16] 0.148 | [5] -0.057 | [17] 0.027 | [7] 0.114 | [20] 0.009 | [12] -0.085 | [8] 0.048 | [9] 0.074 | [18] 0.081 | [13] 0.238

TSKU (UniProt Q8WUA8)
inactive: [14] -0.071 | [4] 0.141 | [15] 0.015 | [16] 0.069 | [17] 0.043 | [20] -0.103 | [8] -0.281

UBAP2L (UniProt F8W726)
inactive: [14] -0.093 | [15] 0.004 | [19] 0.014 | [16] -0.067 | [5] -0.058 | [6] 0.077 | [17] -0.002 | [11] -0.094 | [12] 0.025 | [13] -0.027

UBE2L6 (UniProt O14933)
inactive: [16] 0.041 | [20] -0.056

UBE2J2 isoform 3 (UniProt Q8N2K1)
inactive: [10] -0.085 | [14] 0.024 | [3] 0.028 | [4] 0.214 | [15] -0.027 | [16] 0.009 | [5] 0.006 | [6] -0.07 | [17] -0.157 | [7] 0.254 | [12] -0.418 | [8] 0.04 | [18] -0.055 | [13] 0.122

TYK2 (UniProt P29597)
inactive: [10] -0.11 | [14] -0.096 | [15] 0.141 | [5] -0.237 | [17] -0.179 | [9] -0.138 | [18] 0.139

UBE2M (UniProt M0QX69)
inactive: [2] 0.166

TUBA4A (UniProt C9JJQ8)
inactive: [10] -0.019 | [14] 0.022 | [2] 0.138 | [4] 0.053 | [15] -0.065 | [5] 0.136 | [6] -0.115 | [17] 0.099 | [8] 0.09 | [18] 0.114

TUT1 (UniProt Q9H6E5)
inactive: [5] 0.091 | [9] 0.011

TTR (UniProt P02766)
inactive: [19] 0.178 | [16] -0.102 | [20] 0.113

TSPYL1 (UniProt Q9H0U9)
inactive: [14] -0.193 | [15] 0.081 | [16] 0.055 | [17] -0.033 | [11] 0.001 | [20] -0.074

TTK (UniProt P33981)
inactive: [1] 0.037 | [3] 0.358 | [4] -0.04 | [7] -0.138 | [8] -0.079

TSPAN31 (UniProt Q12999)
inactive: [10] -0.028 | [14] 0.054 | [2] 0.052 | [3] -0.125 | [15] 0.023 | [19] 0.112 | [16] -0.165 | [6] -0.032 | [17] 0.003 | [11] 0.289 | [7] 0.079 | [20] -0.188 | [18] -0.045

TTC14 (UniProt Q96N46)
inactive: [10] -0.129 | [16] 0.311 | [5] 0.114 | [6] 0.052 | [20] -0.08 | [9] -0.093

TSPYL4 (UniProt Q9UJ04)
inactive: [2] 0.012 | [4] -0.107 | [8] 0.123

TWNK (UniProt Q96RR1)
inactive: [1] 0.115 | [3] 0.141 | [4] 0.127 | [16] 0.087 | [5] -0.063 | [11] 0.069 | [7] 0.064 | [20] -0.032 | [8] -0.027 | [9] -0.047

Retrieved one by one from above (2):
TSKU (UniProt Q8WUA8)
inactive: [14] -0.071 | [4] 0.141 | [15] 0.015 | [16] 0.069 | [17] 0.043 | [20] -0.103 | [8] -0.281

UBE2L5, A0A1B0GUS4
inactive: [4] 0.097 | [16] -0.096 | [6] 0.065 | [20] 0.14 | [8] -0.049

The list goes on.

TYW5 (UniProt A2RUC4)
inactive: [1] 0.006 | [14] -0.023 | [3] 0.087 | [4] -0.01 | [15] -0.154 | [19] 0.024 | [16] 0.077 | [17] 0.276 | [7] -0.092 | [20] -0.088 | [12] -0.011 | [8] 0.092 | [13] -0.061

TYRO3 (UniProt Q06418)
inactive: [10] -0.189 | [2] -0.13 | [3] 0.142 | [5] -0.024 | [11] 0.157 | [7] 0.21 | [9] 0.039

TSPAN17 isoform 4 (UniProt Q96FV3)
inactive: [10] -0.024 | [3] -0.093 | [16] -0.124 | [7] -0.07 | [20] 0.071
